# Measured values as given in patent US20230302018A1 (priority 2022, published 2023).
# Entries after “also recorded” stand apart in the source; their conditions may differ. At least one compound was matched to its structure with a doubt left.
# How the values were obtained:
# [1] = tested on: Male Wistar rats exposed to nitrogen mustard (NM); format: in vivo, rat
# [2] = tested on: Male Wistar rats exposed to nitrogen mustard (NM); format: in vivo, rat; remark: listed apart in the source
structure (smiles),measurement,setting,value
"CC[C@H]1[C@@H](O)[C@@H]2[C@H](CC[C@]3(C)[C@@H]([C@H](C)CCC(=O)O)CC[C@@H]23)[C@@]2(C)CC[C@@H](O)C[C@@H]12 [OCA, 6α-ethyl-chenodeoxycholic acid]",alveolar circularization associated with emphysematous-like disease (NM-induced),[1]; 28 days,reducing
same,alveolar epithelial thickness associated with pulmonary fibrosis (NM-induced),[1]; 28 days,reducing
same,NM-induced increase in Oil Red O staining (lipid-laden foamy macrophages),"[1]; rat, in vivo",blunts the appearance of these cells; also recorded: reduced
same,NM-induced increase in SP-D (surfactant protein D) in lung fluid,"[1]; rat, in vivo",mitigated; also recorded: reduce
same,NM-induced increase in total phospholipids in lung fluid,"[1]; rat, in vivo",mitigated; also recorded: reduce
same,"NM-induced pulmonary inflammation, oxidative stress, and fibrotic development (overall)","[1]; rat, in vivo",reduces
same,"NM-induced structural changes in the lung including septal-thickening, inflammatory cell infiltration, pulmonary edema, and collagen deposition","[1]; rat, in vivo",significantly attenuated
same,"NM-induced increases in protein expression and gene expression of inflammatory and oxidative stress markers (TNFα, NF-κB, HO-1, NOS2, pH2AX, IL-12)","[1]; rat, in vivo, pH 2",significantly reduced
same,NM-induced change in resistance of the lung tissue,[2]; 28 days,completely mitigated; also recorded: reduced; also recorded: completely attenuate
same,effect of NM on pulmonary function measured at positive end expiratory pressure of 3 mm H2O,[2]; 28 days,mitigated
same,pulmonary function in NM treated animals,[2]; 28 days,markedly improved; also recorded: normal pulmonary functioning
same,NM-induced decrease in impedance (measure of total pulmonary function including airway integrity),[2]; after 28 days,completely attenuate
